Experimental data published in publication doi:10.1101/2024.02.28.582656.
Numbering of substitutions follows the chain as printed. Like-named read-outs stand apart in the source and are kept apart here. No constants are given. Whether binding was seen depends on the method and setting. Binding seen in cells or lysates may run through a third protein. Some results given as binding are weak or reduced against the parent protein; the word gives no strength. For some of these results: Tags and fused reporters may be left off the sequences shown. Each block holds one molecule with its values, some of them ahead of it.

Sequences of proteins named here, by UniProt entry; tags and fusion partners are left off.
UniProt O95292: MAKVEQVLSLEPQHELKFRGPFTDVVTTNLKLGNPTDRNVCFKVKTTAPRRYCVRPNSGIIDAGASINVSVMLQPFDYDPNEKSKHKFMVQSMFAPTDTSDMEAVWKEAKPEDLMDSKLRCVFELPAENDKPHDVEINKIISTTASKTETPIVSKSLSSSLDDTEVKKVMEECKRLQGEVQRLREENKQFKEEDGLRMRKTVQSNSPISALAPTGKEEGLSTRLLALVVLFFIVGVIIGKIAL

Legend:
Test in all cases: co-IP
[1] = molecular target: T1, GFP-VPS13B-NT (1-1500aa) (human) (UniProt Q7Z7G8)
T1 sequence: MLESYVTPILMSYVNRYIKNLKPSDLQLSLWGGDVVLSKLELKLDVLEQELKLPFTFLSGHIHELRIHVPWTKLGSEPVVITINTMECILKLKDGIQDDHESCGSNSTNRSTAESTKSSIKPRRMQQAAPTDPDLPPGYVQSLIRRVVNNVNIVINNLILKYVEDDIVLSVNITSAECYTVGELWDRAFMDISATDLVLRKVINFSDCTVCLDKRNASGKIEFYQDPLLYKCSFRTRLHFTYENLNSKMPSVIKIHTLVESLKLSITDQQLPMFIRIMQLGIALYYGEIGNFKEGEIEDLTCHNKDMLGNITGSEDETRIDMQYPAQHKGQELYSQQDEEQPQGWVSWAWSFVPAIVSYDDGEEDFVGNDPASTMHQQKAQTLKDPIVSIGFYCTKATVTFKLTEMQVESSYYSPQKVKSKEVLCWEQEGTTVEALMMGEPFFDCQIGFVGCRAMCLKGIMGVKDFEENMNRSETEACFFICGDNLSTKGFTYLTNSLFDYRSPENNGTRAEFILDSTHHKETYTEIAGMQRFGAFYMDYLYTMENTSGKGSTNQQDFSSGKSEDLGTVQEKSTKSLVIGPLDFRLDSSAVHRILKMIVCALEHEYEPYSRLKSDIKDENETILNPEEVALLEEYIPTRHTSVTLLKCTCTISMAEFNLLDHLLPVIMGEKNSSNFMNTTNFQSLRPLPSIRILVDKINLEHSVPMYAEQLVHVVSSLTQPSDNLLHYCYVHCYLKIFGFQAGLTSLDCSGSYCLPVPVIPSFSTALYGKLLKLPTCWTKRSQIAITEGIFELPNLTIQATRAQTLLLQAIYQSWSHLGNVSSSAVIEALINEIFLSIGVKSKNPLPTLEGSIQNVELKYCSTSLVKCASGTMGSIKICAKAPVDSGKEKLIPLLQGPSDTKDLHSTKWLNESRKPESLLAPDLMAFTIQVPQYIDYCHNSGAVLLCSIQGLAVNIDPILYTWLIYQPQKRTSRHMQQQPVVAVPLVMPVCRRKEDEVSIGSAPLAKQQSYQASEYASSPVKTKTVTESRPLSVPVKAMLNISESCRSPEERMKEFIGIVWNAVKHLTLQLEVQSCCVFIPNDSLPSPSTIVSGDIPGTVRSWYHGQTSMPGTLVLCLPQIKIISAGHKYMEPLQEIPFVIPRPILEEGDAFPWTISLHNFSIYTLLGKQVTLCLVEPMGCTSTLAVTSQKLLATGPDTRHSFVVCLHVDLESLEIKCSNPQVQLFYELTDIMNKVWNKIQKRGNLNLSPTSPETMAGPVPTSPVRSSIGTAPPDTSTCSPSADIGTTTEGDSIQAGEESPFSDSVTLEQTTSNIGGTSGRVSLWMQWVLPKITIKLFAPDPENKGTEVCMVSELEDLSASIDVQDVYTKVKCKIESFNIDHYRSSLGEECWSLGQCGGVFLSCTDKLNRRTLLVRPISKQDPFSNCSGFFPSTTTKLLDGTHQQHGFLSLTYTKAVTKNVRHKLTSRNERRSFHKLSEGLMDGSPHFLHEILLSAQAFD

[2] = molecular target: T2, GFP-VPS13B-NT (1-1500aa) S560D (human) (UniProt Q7Z7G8)
T2 sequence: T1 sequence with S560D

[3] = molecular target: T1, GFP-VPS13B-NT (1-1500aa) (human); remark: listed apart in the source
[4] = molecular target: endogenous VPS13B (human (endogenous in HEK293)) (UniProt Q7Z7G8)

binding [1]: binds
binding [2]: binds
Molecule: VAPB (from UniProt O95292 1-243)

binding [3]: no binding
B1: MOSPD3 (protein, UniProt O75425 1-235)
chain: MRRGAPQDQELVGPGPPGRGSRGAPPPLGPVVPVLVFPPDLVFRADQRSGPRQLLTLYNPTGTALRFRVLCTAPAKYTVFDAEGYVKPQSCIDIVIRHVAPIPSHYDVQDRFRIELSEEGAEGRVVGRKDITSILRAPAYPLELQGQPDPAPRPGPPAGTPPPTARHFQEHPRQQLATSSFLLFLLTGIVSVAFLLLPLPDELGSQLPQVLHVSLGQKLVAAYVLGLLTMVFLRT

binding [4]: binds
B2: endogenous Sec23IP (protein, UniProt Q9Y6Y8 1-1000)
chain: MAERKPNGGSGGASTSSSGTNLLFSSSATEFSFNVPFIPVTQASASPASLLLPGEDSTDVGEEDSFLGQTSIHTSAPQTFSYFSQVSSSSDPFGNIGQSPLTTAATSVGQSGFPKPLTALPFTTGSQDVSNAFSPSISKAQPGAPPSSLMGINSYLPSQPSSLPPSYFGNQPQGIPQPGYNPYRHTPGSSRANPYIAPPQLQQCQTPGPPAHPPPSGPPVQMYQMPPGSLPPVPSSVQSPAQQQVPARPGAPSVQVPSPFLLQNQYEPVQPHWFYCKEVEYKQLWMPFSVFDSLNLEEIYNSVQPDPESVVLGTDGGRYDVYLYDRIRKAAYWEEEPAEVRRCTWFYKGDTDSRFIPYTEEFSEKLEAEYKKAVTTNQWHRRLEFPSGETIVMHNPKVIVQFQPSSVPDEWGTTQDGQTRPRVVKRGIDDNLDEIPDGEMPQVDHLVFVVHGIGPVCDLRFRSIIECVDDFRVVSLKLLRTHFKKSLDDGKVSRVEFLPVHWHSSLGGDATGVDRNIKKITLPSIGRFRHFTNETLLDILFYNSPTYCQTIVEKVGMEINHLHALFMSRNPDFKGGVSVAGHSLGSLILFDILSNQKDLNLSKCPGPLAVANGVVKQLHFQEKQMPEEPKLTLDESYDLVVENKEVLTLQETLEALSLSEYFSTFEKEKIDMESLLMCTVDDLKEMGIPLGPRKKIANFVEHKAAKLKKAASEKKAVAATSTKGQEQSAQKTKDMASLPSESNEPKRKLPVGACVSSVCVNYESFEVGAGQVSVAYNSLDFEPEIFFALGSPIAMFLTIRGVDRIDENYSLPTCKGFFNIYHPLDPVAYRLEPMIVPDLDLKAVLIPHHKGRKRLHLELKESLSRMGSDLKQGFISSLKSAWQTLNEFARAHTSSTQLQEELEKVANQIKEEEEKQVVEAEKVVESPDFSKDEDYLGKVGMLNGGRRIDYVLQEKPIESFNEYLFALQSHLCYWESEDTALLLLKEIYRTMNISPEQPQH
